No constants are given. Whether binding was seen depends on the method and setting. In cells and extracts the contact can be indirect. Some entries that bind do so weakly or less than the wild type. For some of these results: Sequences can lack the tags named with a protein. Each block holds one binder with its values, some of them ahead of it.
Experiments:
[1] = molecular target: gp96 endogenous in cultured cell lines (HeLa, HL-60, 293) (Homo sapiens (Human)) (UniProt P14625); test: pull-down of HeLa cell lysate with purified GST-AIMP1 fragments, Western blot with anti-gp96 antibody
[2] = molecular target: gp96 from mouse pancreas protein extract (mouse) (UniProt P08113); test: pull-down from mouse pancreas extract with biotin-conjugated AIMP1, Western blot with anti-gp96 antibody (FIG. 2)
[3] = molecular target: gp96 from mouse pancreas protein extract (mouse) (UniProt P08113); test: pull-down from mouse pancreas extract with GST-AIMP1, Western blot with anti-gp96 antibody (FIG. 3)
[4] = molecular target: gp96 endogenous in cultured cell lines (HeLa, HL-60, 293) (Homo sapiens (Human)) (UniProt P14625); test: co-immunoprecipitation with anti-gp96 antibody from lysate of HL-60 cells transfected with an AIMP1-encoding plasmid

Amino acid sequences for entries named in this document (tags omitted). A change or cut given only in a name is not applied to a line headed by its entry. Residues count along the entry.
UniProt P14625: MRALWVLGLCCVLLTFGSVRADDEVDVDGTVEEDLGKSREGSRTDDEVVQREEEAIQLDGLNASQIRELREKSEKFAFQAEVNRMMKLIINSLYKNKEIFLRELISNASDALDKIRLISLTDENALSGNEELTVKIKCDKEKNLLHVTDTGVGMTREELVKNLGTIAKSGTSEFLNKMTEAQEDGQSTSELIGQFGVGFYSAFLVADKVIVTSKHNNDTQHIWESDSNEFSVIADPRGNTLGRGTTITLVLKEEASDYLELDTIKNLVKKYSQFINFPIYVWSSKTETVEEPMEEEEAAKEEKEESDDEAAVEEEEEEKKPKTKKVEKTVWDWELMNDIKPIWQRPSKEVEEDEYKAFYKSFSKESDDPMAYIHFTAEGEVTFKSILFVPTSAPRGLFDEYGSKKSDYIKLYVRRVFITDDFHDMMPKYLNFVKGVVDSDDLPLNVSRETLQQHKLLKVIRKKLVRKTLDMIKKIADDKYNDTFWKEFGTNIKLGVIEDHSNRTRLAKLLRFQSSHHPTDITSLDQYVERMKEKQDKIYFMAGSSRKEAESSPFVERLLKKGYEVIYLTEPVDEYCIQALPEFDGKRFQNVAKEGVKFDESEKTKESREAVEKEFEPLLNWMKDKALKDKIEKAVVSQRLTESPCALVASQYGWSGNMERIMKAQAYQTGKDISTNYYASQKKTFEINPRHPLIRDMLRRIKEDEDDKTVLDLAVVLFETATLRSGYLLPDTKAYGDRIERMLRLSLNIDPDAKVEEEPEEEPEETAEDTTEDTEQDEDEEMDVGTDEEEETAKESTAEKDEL
UniProt P08113, residues 22-802: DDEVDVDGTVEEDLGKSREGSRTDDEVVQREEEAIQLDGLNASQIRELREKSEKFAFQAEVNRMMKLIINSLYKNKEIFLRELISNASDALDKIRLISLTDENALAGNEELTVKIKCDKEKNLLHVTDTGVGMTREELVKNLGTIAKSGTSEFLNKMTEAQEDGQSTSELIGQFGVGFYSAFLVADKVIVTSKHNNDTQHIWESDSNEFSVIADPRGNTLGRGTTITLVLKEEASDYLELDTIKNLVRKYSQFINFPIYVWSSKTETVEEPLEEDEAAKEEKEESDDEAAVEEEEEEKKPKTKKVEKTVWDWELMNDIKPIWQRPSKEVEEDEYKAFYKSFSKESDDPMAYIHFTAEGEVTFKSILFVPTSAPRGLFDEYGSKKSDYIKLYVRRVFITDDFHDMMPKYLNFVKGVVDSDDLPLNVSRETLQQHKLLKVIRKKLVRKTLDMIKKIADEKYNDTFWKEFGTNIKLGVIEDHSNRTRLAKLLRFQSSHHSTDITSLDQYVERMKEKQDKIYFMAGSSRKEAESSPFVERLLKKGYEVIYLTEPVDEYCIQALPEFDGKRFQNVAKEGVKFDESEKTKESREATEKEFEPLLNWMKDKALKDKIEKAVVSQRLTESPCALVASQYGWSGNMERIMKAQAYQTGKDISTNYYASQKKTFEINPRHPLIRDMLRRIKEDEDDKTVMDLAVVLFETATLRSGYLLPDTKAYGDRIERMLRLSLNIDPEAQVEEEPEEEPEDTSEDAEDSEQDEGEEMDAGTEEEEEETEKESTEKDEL

B3: GST-AIMP1 (protein, not shown: a dimerising Fc or GST)
chain: MANNDAVLKRLEQKGAEADQIIEYLKQQVSLLKEKAILQATLREEKKLRVENAKLKKEIEELKQELIQAEIQNGVKQIAFPSGTPLHANSMVSENVIQSTAVTTVSSGTKEQIKGGTGDEKKAKEKIEKKGEKKEKKQQSIAGSADSKPIDVSRLDLRIGCIITARKHPDADSLYVEEVDVGEIAPRTVVSGLVNHVPLEQMQNRMVILLCNLKPAKMRGVLSQAMVMCASSPEKIEILAPPNGSVPGDRITFDAFPGEPDKELNPKKKIWEQIQPDLHTNDECVATYKGVPFEVKGKGVCRAQTMSNSGIK
binding [3]: binds

B4: AIMP1 expressed in cells transfected with an AIMP1-encoding plasmid (protein)
chain: MANNDAVLKRLEQKGAEADQIIEYLKQQVSLLKEKAILQATLREEKKLRVENAKLKKEIEELKQELIQAEIQNGVKQIAFPSGTPLHANSMVSENVIQSTAVTTVSSGTKEQIKGGTGDEKKAKEKIEKKGEKKEKKQQSIAGSADSKPIDVSRLDLRIGCIITARKHPDADSLYVEEVDVGEIAPRTVVSGLVNHVPLEQMQNRMVILLCNLKPAKMRGVLSQAMVMCASSPEKIEILAPPNGSVPGDRITFDAFPGEPDKELNPKKKIWEQIQPDLHTNDECVATYKGVPFEVKGKGVCRAQTMSNSGIK
binding [4]: binds

Further lines, results first:

binding [1]: binds
B1: GST-AIMP1-(54-192) (protein, not shown: a dimerising Fc or GST)
chain: KLKKEIEELKQELIQAEIQNGVKQIAFPSGTPLHANSMVSENVIQSTAVTTVSSGTKEQIKGGTGDEKKAKEKIEKKGEKKEKKQQSIAGSADSKPIDVSRLDLRIGCIITARKHPDADSLYVEEVDVGEIAPRTVVSG

binding [2]: binds
B2: biotin-conjugated recombinant AIMP1 protein (protein)
chain: MANNDAVLKRLEQKGAEADQIIEYLKQQVSLLKEKAILQATLREEKKLRVENAKLKKEIEELKQELIQAEIQNGVKQIAFPSGTPLHANSMVSENVIQSTAVTTVSSGTKEQIKGGTGDEKKAKEKIEKKGEKKEKKQQSIAGSADSKPIDVSRLDLRIGCIITARKHPDADSLYVEEVDVGEIAPRTVVSGLVNHVPLEQMQNRMVILLCNLKPAKMRGVLSQAMVMCASSPEKIEILAPPNGSVPGDRITFDAFPGEPDKELNPKKKIWEQIQPDLHTNDECVATYKGVPFEVKGKGVCRAQTMSNSGIK
modifications: conjugated to biotin with sulfo-biotin reagent (sites not given)

Source: US20100138941A1
